Data reported in PubChem BioAssay AID1671190 (National Center for Advancing Translational Sciences (NCATS), 2021).
“And” between values parts separate entries of the source, which are not always exact repeats. Identical values can stand only once. In all, about 580,000 compounds went through this assay and about 6,100 (1.1%) were called active. Inconclusive means that the source gave no clear call. Such entries were picked first, then a sample of the others. Calls follow the shape of the dose curve; as a rule, active = well fitted inhibition curve with a large enough effect; inconclusive = small, poorly fitted or top-dose-only effect, or another doubt; inactive = no such curve, though single readings can be large or run the other way. Where the call is inconclusive, the potency comes from a doubtful curve fit.

Sequences of proteins named here, by UniProt entry; tags and fusion partners are left off. A change or cut given only in a name is not applied to a line headed by its entry.
UniProt P18054: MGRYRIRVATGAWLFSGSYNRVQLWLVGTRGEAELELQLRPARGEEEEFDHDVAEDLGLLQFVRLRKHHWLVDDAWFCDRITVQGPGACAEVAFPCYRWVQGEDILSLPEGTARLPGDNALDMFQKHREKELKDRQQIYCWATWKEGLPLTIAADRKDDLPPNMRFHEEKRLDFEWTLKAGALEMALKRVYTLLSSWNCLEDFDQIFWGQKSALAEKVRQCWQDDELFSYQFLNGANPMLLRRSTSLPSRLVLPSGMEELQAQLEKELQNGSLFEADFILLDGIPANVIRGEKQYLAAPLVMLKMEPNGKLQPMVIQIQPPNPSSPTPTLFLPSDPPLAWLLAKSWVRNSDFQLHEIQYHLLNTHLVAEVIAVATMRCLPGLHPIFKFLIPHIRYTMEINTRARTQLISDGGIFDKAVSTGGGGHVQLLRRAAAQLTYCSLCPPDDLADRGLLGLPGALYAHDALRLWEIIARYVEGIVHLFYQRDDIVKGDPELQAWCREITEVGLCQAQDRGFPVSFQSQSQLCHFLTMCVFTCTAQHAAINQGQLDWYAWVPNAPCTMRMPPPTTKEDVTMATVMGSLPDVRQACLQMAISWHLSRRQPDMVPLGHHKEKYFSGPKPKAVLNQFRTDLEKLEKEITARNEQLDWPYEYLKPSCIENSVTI

These compounds were tested against Polyunsaturated fatty acid lipoxygenase ALOX12 (Homo sapiens) (UniProt P18054) (assay: Primary qHTS assay for inhibitors of human arachidonate 12S-lipoxygenase (ALOX12): Round 2). Details: purified 12hLO, xylenol orange hydroperoxide absorbance; series mostly up to 108 µM.
Summary of the method: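 Purified human 12hLO (150 nM final) in 25 mM Hepes, 0.01% Triton X-100, pH 7.0 was preincubated 15 min at room temperature with compound. Then 40 uM arachidonic acid was added, 30 min. Hydroperoxide was read by Fe-XO absorbance ratio 573/405 nm.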
Potency is read from the fitted curve at half-maximal effect.

SMILES	Potency
Cc1ccc(C(=O)OCC(=O)N2CCc3ccccc32)cc1	inactive
N#Cc1cccc(NC(=O)c2cc3c(s2)CCCC3)c1	inactive
CCCCc1ccc(/C(C)=N/Nc2cc(N3CCOCC3)nc(C)n2)cc1	inconclusive: 79.4 µM [inhibitor, partial curve, poor fit]
CCCC(O)(c1ccc(CC)cc1)C(CN1CCOCC1)c1ccccc1 (configuration not stated)	inconclusive: 44.7 µM [inhibitor, partial curve, poor fit]
CCOC(=O)c1c(-c2ccccc2)oc2ccc(OCC(O)CNCCN(C)C)cc12 (configuration not stated)	inactive
COc1ccc2cc(C(=O)N3CCN(S(=O)(=O)c4ccccc4)CC3)c(C)nc2c1	inactive
Cc1ccc(-c2nn(-c3ccccc3)cc2/C=N/n2c(-c3ccncc3)n[nH]c2=S)cc1	inconclusive: 100 µM [inhibitor, single point]
CN(C)S(=O)(=O)c1ccc(/C(O)=C2/C(=O)C(=O)N(Cc3cccnc3)C2c2ccco2)cc1 (configuration not stated)	inconclusive: 35.5 µM [inhibitor, partial curve, poor fit]
Cc1cccc(N2CCN(c3nnnn3-c3ccccc3)CC2C)c1 (configuration not stated)	inconclusive: 126 µM [inhibitor, partial curve, poor fit]
C=CCOc1c(Br)cc(CNc2ccc(NC(=O)CCC)cc2)cc1OCC	inactive
Cc1csc(NC(=O)[C@@H]2CCC[C@@H](NC(=O)c3ccccc3)CN(C)C(=O)C2)n1	inactive
O=C(COC(=O)c1ccc2ccccc2n1)c1ccc2ccccc2c1	inconclusive: 44.7 µM [inhibitor, partial curve]
Cc1cc(N2C(=O)C(O)=C(C(=O)c3cccs3)C2c2cccc(Br)c2)no1 (configuration not stated)	inconclusive: 158 µM [inhibitor, single point]
CC(=O)Nc1ccc(CN(C)c2c(C)nc3ccc(C(=O)N(C)Cc4ccccc4)cn23)cc1	inactive
Cc1cccc(-c2cc(C(=O)O)c3c(Br)cccc3n2)c1	inconclusive: 39.8 µM [inhibitor, partial curve, poor fit]
CCN(CC(=O)Nc1ccc(NC(C)=O)cc1)C(=O)CN1C(=O)NC2(CCCC2)C1=O	inconclusive: 2.82 µM [inhibitor, full curve, poor fit]
CN(C)CCCNC(=O)C1CCCN(c2ncnc3nc[nH]c23)C1 (configuration not stated)	inactive
CC(C)C(=O)Nc1cccc(C(=O)OCC(=O)c2ccc(Cl)cc2Cl)c1	inconclusive: 89.1 µM [inhibitor, single point]
O=C(O)c1c2c(nc3ccccc13)/C(=C/c1ccc(O)cc1)CCC2	inconclusive: 79.4 µM [inhibitor, partial curve, poor fit]
CCN1CC(c2nc(-c3ccc(-n4nc(C)cc4N)cc3)no2)CCC1=O (configuration not stated)	inactive
O=C(NCCN1CCC(n2c(=O)[nH]c3ccccc32)CC1)N1c2ccccc2Sc2ccccc21	inconclusive: 50.1 µM [inhibitor, partial curve, poor fit]

SMILES	Potency
COc1cccc(C2C(C(=O)Nc3nc4ccccc4s3)=C(C)NC3=C2C(=O)CC(C)(C)C3)c1OC (configuration not stated)	inconclusive: 112 µM [inhibitor, single point]
Nc1ccc(S(=O)(=O)Nc2nccs2)cc1N=Nc1ccccc1[N+](=O)[O-]	inconclusive: 15.8 µM [inhibitor, full curve, poor fit]
COc1ccc(NC(=O)[C@@H]2C[C@@H](c3ccc(F)cc3)N([S+](=O)([O-])c3cccnc3)C2)c(C)c1	inconclusive: 89.1 µM [inhibitor, partial curve, poor fit]
COCCn1cnc2c(c1=O)c1nc3ccccc3nc1n2/N=C/c1ccco1	inconclusive: 112 µM [inhibitor, single point]
COc1cc(C#N)ccc1OCCOc1ccccc1C(C)=O	inconclusive: 39.8 µM [inhibitor, partial curve, poor fit]
CCc1ccc(O)c(N=Cc2ccccc2O)c1	inconclusive: 50.1 µM [inhibitor, partial curve]
Cc1ccn2cc(C(=O)N3CCC(n4nccc4NC(=O)CC(C)C)CC3)nc2c1	inconclusive: 100 µM [inhibitor, partial curve, poor fit]
CCOc1cc2c(cc1OCC)C(C(=O)O)C(c1cc(OC)c(OC)c(OC)c1)N(C)C2=O (configuration not stated)	inactive
COc1ncc2nc(C)c(=O)n(C3CC3)c2n1	inconclusive: 2.24 µM [inhibitor, partial curve, poor fit]
CCC(C)Sc1ccc(-c2nc3cc(C)ccn3c2NC2CCCCC2)cc1 (configuration not stated)	inconclusive: 44.7 µM [inhibitor, partial curve, poor fit] and active: 35.5 µM
Cc1ccc(C(=O)Nc2cc(-c3cn4cccnc4n3)ccc2C)cc1C	inconclusive: 50.1 µM [inhibitor, partial curve, poor fit]
CCCn1c(N2CCN(CC(=O)NCc3cccs3)CC2)nc2ccccc21	inconclusive: 44.7 µM [inhibitor, single point]
CC1(C(=O)NS(=O)(=O)c2ccccc2Cl)CCN1C(=O)Cc1cc(F)ccc1F (configuration not stated)	inconclusive: 100 µM [inhibitor, single point]
S=C(NN=C1CCCCCC1)NC1CCCCC1	inconclusive: 44.7 µM [inhibitor, partial curve, poor fit]
CN(C)c1cc[n+](CC(=O)Nc2ccc(Oc3ccccc3)cc2)cc1	inactive
O=S(=O)(c1ccc(NC(=S)Nc2ccc(OC(F)F)cc2)cc1)N1CCOCC1	inconclusive: 56.2 µM [inhibitor, partial curve, poor fit]
COc1ccc(C(=O)N2N=C(c3ccco3)CC2c2ccc3nccnc3c2)cc1 (configuration not stated)	inconclusive: 44.7 µM [inhibitor, partial curve, poor fit]
CCS(=O)(=O)c1ncc(N(Cc2ccccc2)Cc2ccco2)c(C(=O)Nc2ccccc2C)n1	inconclusive: 158 µM [inhibitor, partial curve, poor fit]
Cc1cccc(NC(=S)NC(=O)/C=C/c2ccco2)n1	inconclusive: 20 µM [inhibitor, full curve, poor fit]
CC1(Oc2cccc(F)c2)CCN(Cc2ccc3ccccc3c2)C1 (configuration not stated)	inconclusive: 50.1 µM [inhibitor, partial curve, poor fit]
CN1CC(=O)N(C2CNC2)Cc2c(NC3CCCC3)ncnc21	inactive

SMILES	Potency
COc1ccc(N(CC(=O)Nc2ccc(F)c(F)c2)S(=O)(=O)c2c(C)n[nH]c2C)cc1	inconclusive: 79.4 µM [inhibitor, partial curve, poor fit]
Cc1[nH]ncc1CNC(=O)c1ccc(CC2CCN(S(C)(=O)=O)CC2)cc1	inactive
O=C(c1ccco1)N1CCN(c2nc3ccccc3c(=O)n2-c2ccccc2)CC1	inconclusive: 2.82 µM [inhibitor, partial curve, poor fit]
COc1ccccc1OCCn1ccnc1	inconclusive: 0.501 µM [inhibitor, full curve, poor fit]
O=C(Cc1ccc(Cl)cc1)NCCc1csc2nc(-c3ccccc3F)nn12	inconclusive: 158 µM [inhibitor, partial curve, poor fit]
Cc1ccc(-c2cn3c(=O)cc(C)[nH]c3n2)cc1	inactive
CCN(CC)CC(=O)Nc1ccc2c(c1)N(C(=O)CN(CC)CC)c1ccccc1CC2	inactive
CNS(=O)(=O)c1ccc(C)c(S(=O)(=O)NC)c1	inconclusive: 44.7 µM [inhibitor, partial curve, poor fit]
CC(=O)N1CCCC(N2CCN(c3cccc(C(F)(F)F)c3)CC2)C1 (configuration not stated)	inactive
CCOC(=O)c1ccc(-n2c(CCC(=O)O)ccc2-c2ccccc2)cc1O	inconclusive: 63.1 µM [inhibitor, partial curve, poor fit]
O=C(CNC(=O)c1ccccc1)NCCc1ccc(O)c(O)c1	inconclusive: 44.7 µM [inhibitor, partial curve, poor fit]
COc1ccc(-c2cc(-c3c(C)noc3C)c3cncn3c2)cc1	inconclusive: 100 µM [inhibitor, partial curve, poor fit]
c1ccc(-c2ccc(CN3CCNCC3)s2)cc1	inconclusive: 28.2 µM [inhibitor, single point]
Cc1c(NC(=O)c2cccs2)cccc1-c1nc2cc(Cl)ccc2o1	inconclusive: 100 µM [inhibitor, partial curve, poor fit]
Cc1cc(NC(=O)CN2CCN(c3ccc(O)cc3)CC2)no1	inconclusive: 35.5 µM [inhibitor, partial curve]
CCOP(=O)(c1ccc(N(C)C)cc1)C(O)c1cccnc1 (configuration not stated)	inconclusive: 112 µM [inhibitor, partial curve, poor fit]
Clc1cccc(-c2nnnn2Cc2cccnc2)c1Cl	inconclusive: 2.73 µM [inhibitor, partial curve, poor fit]
CCN(CC)c1ccc(S(=O)(=O)N2CCOCC2)cc1NC(=O)CNCc1cccc(Cl)c1	inconclusive: 141 µM [inhibitor, single point]
O=C(COC(=O)c1ccc([N+](=O)[O-])o1)Nc1ccc(Br)cc1F	inconclusive: 89.1 µM [inhibitor, partial curve, poor fit]
CCOc1ccc(NC(=O)c2nc(S(=O)(=O)Cc3ccccc3F)ncc2Cl)cc1	inconclusive: 112 µM [inhibitor, partial curve, poor fit]
